{"source": "the supplement of paper PMC8728848", "binders": {"B1": {"name": "Intelectin 1 (Homo sapiens), Q8WWA0 (protein)", "chain": "MNQLSFLLFLIATTRGWSTDEANTYFKEWTCSSSPSLPRSCKEIKDECPSAFDGLYFLRTENGVIYQTFCDMTSGGGGWTLVASVHENDMRGKCTVGDRWSSQQGSKAVYPEGDGNWANYNTFGSAEAATSDDYKNPGYYDIQAKDLGIWHVPNKSPMQHWRNSSLLRYRTDTGFLQTLGHNLFGIYQKYPVKYGEGKCWTDNGPVIPVVYDFGDAQKTASYYSPYGQREFTAGFVQFRVFNNERAANALCAGMRVTGCNTEHHCIGGGGYFPEASPQQCGDFSGFDWSGYGTHVGYSSSREITEAAVLLFYR"}}, "test_in_all_cases": "glycan array binding signal (z-score within array); higher = stronger binding", "conditions_in_all_cases": "glycan notation: IUPAC condensed, linker removed", "key": {"[1]": {"molecular_target": "Neu5Ac(a2-6)Gal(b1-4)GlcNAc(b1-2)Man(a1-3)[GlcNAc(b1-2)Man(a1-6)]Man(b1-4)GlcNAc(b1-4)GlcNAc", "method_in_brief": "(§1)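 Arrays were curated from the Consortium for Functional Glycomics database, 3228 in total, and kept only where the protein sequence was available. Binding is expressed as a within-array Z-score. This score was averaged across arrays of the same protein sequence at different concentrations or buffers and across linkers, and negative values can be read as non-binding.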"}, "[2]": {"molecular_target": "Neu5Ac(a2-6)Gal(b1-4)GlcNAc(b1-2)Man(a1-3)[GlcNAc(b1-2)Man(b1-4)GlcNAc(b1-2)Man(a1-6)]Man(b1-4)GlcNAc(b1-4)GlcNAc", "method_in_brief": "as §1"}, "[3]": {"molecular_target": "Neu5Ac(a2-6)Gal(b1-4)GlcNAc(b1-2)Man(a1-3)[Man(a1-6)]Man(b1-4)GlcNAc(b1-4)GlcNAc", "method_in_brief": "as §1"}, "[4]": {"molecular_target": "Neu5Ac(a2-6)Gal(b1-4)GlcNAc(b1-2)Man(a1-3)[Neu5Ac(a2-6)Gal(b1-4)GlcNAc(b1-2)Man(a1-6)]Man(b1-4)GlcNAc(b1-4)GlcNAc", "method_in_brief": "as §1"}, "[5]": {"molecular_target": "Neu5Ac(a2-6)Gal(b1-4)GlcNAc(b1-2)Man(a1-6)Man(b1-4)GlcNAc(b1-4)GlcNAc", "method_in_brief": "as §1"}, "[6]": {"molecular_target": "Neu5Ac(a2-6)Gal(b1-4)GlcNAc(b1-2)Man(a1-6)[Gal(b1-4)GlcNAc(b1-2)Man(a1-3)]Man(b1-4)GlcNAc(b1-4)GlcNAc", "method_in_brief": "as §1"}, "[7]": {"molecular_target": "Neu5Ac(a2-6)Gal(b1-4)GlcNAc(b1-2)Man(a1-6)[GlcNAc(b1-2)Man(a1-3)]Man(b1-4)GlcNAc(b1-4)GlcNAc", "method_in_brief": "as §1"}, "[8]": {"molecular_target": "Neu5Ac(a2-6)Gal(b1-4)GlcNAc(b1-2)Man(a1-6)[Man(a1-3)]Man(b1-4)GlcNAc(b1-4)GlcNAc", "method_in_brief": "as §1"}, "[9]": {"molecular_target": "Neu5Ac(a2-6)Gal(b1-4)GlcNAc(b1-3)Gal(b1-3)GlcNAc", "method_in_brief": "as §1"}, "[10]": {"molecular_target": "Neu5Ac(a2-6)Gal(b1-4)GlcNAc(b1-3)Gal(b1-4)GlcNAc", "method_in_brief": "as §1"}, "[11]": {"molecular_target": "Neu5Ac(a2-6)Gal(b1-4)GlcNAc(b1-3)Gal(b1-4)GlcNAc(b1-3)Gal(b1-4)GlcNAc", "method_in_brief": "as §1"}, "[12]": {"molecular_target": "Neu5Ac(a2-6)Gal(b1-4)GlcNAc(b1-3)Gal(b1-4)[Fuc(a1-3)]GlcNAc(b1-3)Gal(b1-4)[Fuc(a1-3)]GlcNAc", "method_in_brief": "as §1"}, "[13]": {"molecular_target": "Neu5Ac(a2-6)Gal(b1-4)GlcNAc(b1-3)GalNAc", "method_in_brief": "as §1"}, "[14]": {"molecular_target": "Neu5Ac(a2-6)Gal(b1-4)GlcNAc6S", "method_in_brief": "as §1"}, "Neu5Ac(a2-6)GalNAc": {"molecular_target": "Neu5Ac(a2-6)GalNAc", "method_in_brief": "as §1"}, "[15]": {"molecular_target": "Neu5Ac(a2-6)GalNAc(b1-4)GlcNAc", "method_in_brief": "as §1"}, "[16]": {"molecular_target": "Neu5Ac(a2-6)GlcNAc(b1-4)GlcNAc", "method_in_brief": "as §1"}, "[17]": {"molecular_target": "Neu5Ac(a2-6)GlcNAc(b1-4)GlcNAc(b1-4)GlcNAc", "method_in_brief": "as §1"}, "Neu5Ac(a2-8)Neu5Ac": {"molecular_target": "Neu5Ac(a2-8)Neu5Ac", "method_in_brief": "as §1"}, "[18]": {"molecular_target": "Neu5Ac(a2-8)Neu5Ac(a2-3)Gal(b1-3)GalNAc(b1-4)[Neu5Ac(a2-8)Neu5Ac(a2-3)]Gal(b1-4)Glc", "method_in_brief": "as §1"}, "[19]": {"molecular_target": "Neu5Ac(a2-8)Neu5Ac(a2-3)Gal(b1-4)Glc", "method_in_brief": "as §1"}, "[20]": {"molecular_target": "Neu5Ac(a2-8)Neu5Ac(a2-3)[Gal(b1-3)GalNAc(b1-4)]Gal(b1-4)Glc", "method_in_brief": "as §1"}, "[21]": {"molecular_target": "Neu5Ac(a2-8)Neu5Ac(a2-3)[GalNAc(b1-4)]Gal(b1-4)Glc", "method_in_brief": "as §1"}, "[22]": {"molecular_target": "Neu5Ac(a2-8)Neu5Ac(a2-8)Neu5Ac", "method_in_brief": "as §1"}, "[23]": {"molecular_target": "Neu5Ac(a2-8)Neu5Ac(a2-8)Neu5Ac(a2-3)Gal(b1-4)Glc", "method_in_brief": "as §1"}, "[24]": {"molecular_target": "Neu5Ac(a2-8)Neu5Ac(a2-8)Neu5Ac(a2-3)[GalNAc(b1-4)]Gal(b1-4)Glc", "method_in_brief": "as §1"}, "[25]": {"molecular_target": "Neu5Ac(a2-8)Neu5Ac(a2-8)Neu5Ac(a2-8)Neu5Ac(a2-3)[GalNAc(b1-4)]Gal(b1-4)Glc", "method_in_brief": "as §1"}, "[26]": {"molecular_target": "Neu5Ac(b2-6)Gal(b1-4)GlcNAc", "method_in_brief": "as §1"}, "Neu5Ac(b2-6)GalNAc": {"molecular_target": "Neu5Ac(b2-6)GalNAc", "method_in_brief": "as §1"}, "[27]": {"molecular_target": "Neu5Ac9Ac(a2-3)Gal(b1-3)GlcNAc", "method_in_brief": "as §1"}, "[28]": {"molecular_target": "Neu5Ac9Ac(a2-3)Gal(b1-4)GlcNAc", "method_in_brief": "as §1"}, "[29]": {"molecular_target": "Neu5Ac9Ac(a2-6)Gal(b1-4)GlcNAc", "method_in_brief": "as §1"}, "[30]": {"molecular_target": "Neu5Gc(a2-3)Gal(b1-3)GlcNAc", "method_in_brief": "as §1"}, "[31]": {"molecular_target": "Neu5Gc(a2-3)Gal(b1-3)[Fuc(a1-4)]GlcNAc", "method_in_brief": "as §1"}, "Neu5Gc(a2-3)Gal(b1-4)Glc": {"molecular_target": "Neu5Gc(a2-3)Gal(b1-4)Glc", "method_in_brief": "as §1"}, "[32]": {"molecular_target": "Neu5Gc(a2-3)Gal(b1-4)GlcNAc", "method_in_brief": "as §1"}, "[33]": {"molecular_target": "Neu5Gc(a2-3)Gal(b1-4)[Fuc(a1-3)]GlcNAc", "method_in_brief": "as §1"}, "[34]": {"molecular_target": "Neu5Gc(a2-6)Gal(b1-4)GlcNAc", "method_in_brief": "as §1"}, "Neu5Gc(a2-6)GalNAc": {"molecular_target": "Neu5Gc(a2-6)GalNAc", "method_in_brief": "as §1"}, "[35]": {"molecular_target": "Neu5Gc(b2-6)Gal(b1-4)GlcNAc", "method_in_brief": "as §1"}}, "note": "Some of the results follow."}
{"binder": "B1", "values": [{"measurement": "glycan array binding signal (z-score)", "setting": "[1]", "value": -0.299}, {"measurement": "glycan array binding signal (z-score)", "setting": "[2]", "value": 0.602}, {"measurement": "glycan array binding signal (z-score)", "setting": "[3]", "value": 0.125}, {"measurement": "glycan array binding signal (z-score)", "setting": "[4]", "value": 0.186}, {"measurement": "glycan array binding signal (z-score)", "setting": "[5]", "value": -0.5}, {"measurement": "glycan array binding signal (z-score)", "setting": "[6]", "value": -0.416}, {"measurement": "glycan array binding signal (z-score)", "setting": "[7]", "value": 1.24}, {"measurement": "glycan array binding signal (z-score)", "setting": "[8]", "value": 0.21}, {"measurement": "glycan array binding signal (z-score)", "setting": "[9]", "value": -0.051}, {"measurement": "glycan array binding signal (z-score)", "setting": "[10]", "value": -1.1}, {"measurement": "glycan array binding signal (z-score)", "setting": "[11]", "value": -0.649}, {"measurement": "glycan array binding signal (z-score)", "setting": "[12]", "value": 0.681}, {"measurement": "glycan array binding signal (z-score)", "setting": "[13]", "value": 0.629}, {"measurement": "glycan array binding signal (z-score)", "setting": "[14]", "value": -0.532}, {"measurement": "glycan array binding signal (z-score)", "setting": "Neu5Ac(a2-6)GalNAc", "value": -0.44}, {"measurement": "glycan array binding signal (z-score)", "setting": "[15]", "value": 0.53}, {"measurement": "glycan array binding signal (z-score)", "setting": "[16]", "value": -0.166}, {"measurement": "glycan array binding signal (z-score)", "setting": "[17]", "value": -0.643}, {"measurement": "glycan array binding signal (z-score)", "setting": "Neu5Ac(a2-8)Neu5Ac", "value": -0.081}, {"measurement": "glycan array binding signal (z-score)", "setting": "[18]", "value": 0.145}, {"measurement": "glycan array binding signal (z-score)", "setting": "[19]", "value": 0.12}, {"measurement": "glycan array binding signal (z-score)", "setting": "[20]", "value": 0.572}, {"measurement": "glycan array binding signal (z-score)", "setting": "[21]", "value": -0.219}, {"measurement": "glycan array binding signal (z-score)", "setting": "[22]", "value": -0.402}, {"measurement": "glycan array binding signal (z-score)", "setting": "[23]", "value": 0.459}, {"measurement": "glycan array binding signal (z-score)", "setting": "[24]", "value": -0.731}, {"measurement": "glycan array binding signal (z-score)", "setting": "[25]", "value": 0.332}, {"measurement": "glycan array binding signal (z-score)", "setting": "[26]", "value": 0.463}, {"measurement": "glycan array binding signal (z-score)", "setting": "Neu5Ac(b2-6)GalNAc", "value": 0.144}, {"measurement": "glycan array binding signal (z-score)", "setting": "[27]", "value": 0.121}, {"measurement": "glycan array binding signal (z-score)", "setting": "[28]", "value": -1.01}, {"measurement": "glycan array binding signal (z-score)", "setting": "[29]", "value": 0.653}, {"measurement": "glycan array binding signal (z-score)", "setting": "[30]", "value": 0.417}, {"measurement": "glycan array binding signal (z-score)", "setting": "[31]", "value": -0.969}, {"measurement": "glycan array binding signal (z-score)", "setting": "Neu5Gc(a2-3)Gal(b1-4)Glc", "value": -1.04}, {"measurement": "glycan array binding signal (z-score)", "setting": "[32]", "value": 0.78}, {"measurement": "glycan array binding signal (z-score)", "setting": "[33]", "value": 0.832}, {"measurement": "glycan array binding signal (z-score)", "setting": "[34]", "value": -0.17}, {"measurement": "glycan array binding signal (z-score)", "setting": "Neu5Gc(a2-6)GalNAc", "value": 0.523}, {"measurement": "glycan array binding signal (z-score)", "setting": "[35]", "value": 0.526}]}
